In PubChem BioAssay (NCATS):
Inconclusive results, whose numbers are uncertain, are shown with a selection of clear calls. Potencies beside an inconclusive call are fits to weak or partial responses and may not hold up. Calls of active or inactive are those of the source. Calls come from the whole dose curve; as a rule, active = well fitted activation curve with a large enough effect; inconclusive = small, poorly fitted or top-dose-only effect, or another doubt; inactive = no such curve, though single readings can be large or run the other way.

Target: Rap guanine nucleotide exchange factor 3 (Homo sapiens) (UniProt O95398)
Assay: Counterscreen qHTS for agonist of cAMP-regulated guanine nucleotide exchange factor 3 (EPAC1) (AID 1645889); note: nearly all actives have a fitted effect of over 40% in size; for activation: % of control where 0% means no effect
Settings: EPAC1 Rap1B-BODIPY-GDP exchange, fluorescence; activation: at 154 µM (top of the series) unless noted
Procedure, shortened: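 Rap1B-BODIPY-GDP 250 nM + GDP 50 uM; cpds 7-pt, final 9.74 nM–152 uM (activator mode) or from 7.32 nM upwards (inhibitor mode); RT; FI 480/540 nm at 5 and 30 min, then ± cAMP, reread.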
Potency is the fitted concentration of half-maximal effect.

| Structure (SMILES) | Potency | activation |
| --- | --- | --- |
| CCCCN(CCCC)S(=O)(=O)c1ccc(C(=O)Nc2sc3c(c2C(N)=O)CCN(CC)C3)cc1 | inconclusive: 35500 nM [activator, partial curve, poor fit] | – |
| Oc1ccc(N=Cc2c(O)ccc3ccccc23)cc1 | inconclusive: 44.7 nM [activator, partial curve, poor fit] | – |
| COC(=O)c1cc2oc(C)cc2n1Cc1ccccc1Cl | – | inconclusive: 49.7% [activator] |
| CC(=O)NCCn1c(C)cc2ccccc21 | – | inconclusive: 33.9% [activator] [at 30.8 µM] |
| COc1ccc(C(=O)COC(=O)CCN2C(=O)C3CC=CCC3C2=O)c(OC)c1 (configuration not stated) | – | inactive: -0.565% [at 30.8 µM] |
| Cc1ccc(S(=O)(=O)N2CCCCC2)cc1C(=O)NCCC1=CCCCC1 | inactive | – |
| Cc1ccc(CNC(=O)COc2ccccc2-c2ccccc2)cc1 | inconclusive: 31.6 nM [activator, full curve, poor fit] | – |
| COc1cccc(OC)c1NC(=O)c1ccc(-c2cc(Cl)ccc2Cl)o1 | inconclusive: 14100 nM [activator, partial curve, poor fit] | – |
| COCCn1cnnc1SCC(=O)Nc1sc2c(c1C#N)CCC2 | – | inconclusive: 55.5% [activator] [at 30.8 µM] |
| O=C(Nc1ccccn1)c1cccc(S(=O)(=O)N2CCc3ccccc3C2)c1 | inconclusive: 11200 nM [activator, partial curve, poor fit] | – |
| O=C(Nc1ccc(-c2nnc(-c3ccco3)o2)cc1)C(c1ccccc1)c1ccccc1 | inactive | – |
| COc1cc(/C=C(\C#N)C(=O)NC(C)C)cc(Cl)c1O | inactive | – |
| COc1ccc2oc(C(=O)N(C)CCOc3ccc(Cl)cc3)c(C)c2c1 | inconclusive: 12600 nM [activator, partial curve, poor fit] | – |
| COc1ccc(C2CC(=O)n3c(nc4ccccc43)S2)cc1OC (configuration not stated) | – | inactive: 6.35% [at 30.8 µM] |
| C[C@H](c1ccccc1)N1C[C@@H](COCc2ccccc2)Oc2cc(N3CC[C@@H](O)C3)ccc2S1(=O)=O | inconclusive: 20000 nM [activator, partial curve, poor fit] | – |
| Cc1nn(-c2ccccc2)c(C)c1NC(=O)COC(=O)Cc1cccc(C(F)(F)F)c1 | – | inconclusive: 38.7% [activator] |
| Cc1ccc(-c2cc(C(=O)Nc3ccc4c(c3)OCCO4)c3ccccc3n2)cc1 | inconclusive: 3980 nM [activator, partial curve, poor fit] | – |
| CC(OC(=O)c1ccccc1Oc1ccccc1)C(=O)NC1CC1 (configuration not stated) | inactive | – |
| CCCCCN(C(=O)CCC(=O)OCc1ccc(C(C)C)cc1)c1c(N)n(CCCC)c(=O)[nH]c1=O | inactive | – |
| CCN(CCNC(=O)C1CCN(S(=O)(=O)c2cccc3cccnc23)CC1)c1ccccc1 | inconclusive: 10 nM [activator, full curve, poor fit] | – |
| C(=C\c1ccccc1)/CN1CCN(C(c2cc3ccccc3o2)c2nnnn2C2CCCC2)CC1 (configuration not stated) | inconclusive: 25.1 nM [activator, full curve, poor fit] | – |
| Clc1ccc(CSc2nnc(-c3ccncc3)s2)cc1 | – | inconclusive: 44.6% [activator] |
| O=C(O)c1ccc(N/N=C/c2ccc3c(c2)OCO3)cc1 | inactive | – |
| COCCn1c(SCC(=O)c2ccccc2)nc2cc(C(=O)NC3CCCC3)ccc2c1=O | inactive | – |
| CCc1nc2ccc(C(=O)N(C)Cc3ccccc3)cn2c1N(CC)Cc1cccc(Br)c1 | inconclusive: 3980 nM [activator, full curve, poor fit] | – |
| COC(=O)c1cn(C(=O)c2ccc(C)cc2C)c2ccccc12 | inactive | – |

| Structure (SMILES) | Potency | activation |
| --- | --- | --- |
| Cc1cc(Br)ccc1-n1[nH]c(C)c(C=Nc2cccc3nsnc23)c1=O | inactive | – |
| COCCCN1C(=O)C(CC(=O)NCc2cccc3ccccc23)CC(C(=O)N2CCCCCC2)=C1C (configuration not stated) | – | inconclusive: 27.2% [activator] |
| N#Cc1c(-c2cccs2)nc(SCc2ccc(Cl)cc2)[nH]c1=O | inactive | – |
| CC1CN(c2nc3ccccc3cc2-c2ccccc2)CC(C)O1 (configuration not stated) | inactive | – |
| Cc1ccccc1OCCn1cnc2c(N)ncnc21 | – | inconclusive: 43.7% [activator] |
| Cc1ccc(C(=O)c2coc3ccc(O)c(Cl)c23)cc1 | inconclusive: 28.2 nM [activator, full curve, poor fit] | – |
| CC(C)(C)N(NC(=O)Nc1ccc(F)cc1)C(=O)c1ccccc1 | – | inactive: 0.382% [at 30.8 µM] |
| CCC(=O)N1N=C(c2cccs2)CC1c1ccc(OC)cc1 (configuration not stated) | inconclusive: 89.1 nM [activator, full curve, poor fit] | – |
| CN(C)c1ccc(/C=C/c2nc3ccccc3c(=O)n2-c2ccc(C(=O)O)cc2)cc1 | active: 39800 nM | – |
| Cn1cc(C(c2ccccc2)c2ccc(Cl)s2)c2ccccc21 (configuration not stated) | – | inconclusive: 62.1% [activator] |
| CC1CCCN(C2(O)C(=O)Nc3c(C(F)(F)F)cccc32)C1 (configuration not stated) | inconclusive: 8.9 nM [activator, full curve, poor fit] | – |
| O=C(O)Cc1ccc(NC(=O)C(c2ccccc2)c2ccccc2)cc1 | – | inactive: 5.55% [at 30.8 µM] |
| COc1ccc(C2=Cc3ccccc3C(CC(=O)C3CC3)N2c2ccc(C#CCCO)cc2)cc1 (configuration not stated) | inconclusive: 8910 nM [activator, partial curve] | – |
| Cc1ccc(Cc2cnc(N3C(=N)SC(c4ccccc4)C3=O)s2)cc1 (configuration not stated) | – | inactive: 27.7% [at 30.8 µM] |
| CC(C(=O)Nc1ccccc1C(F)(F)F)n1nc(-c2ccccc2)c2c(c1=O)CCCC2 (configuration not stated) | – | inconclusive: 27.9% [activator] |
| COc1ccc(N(Cc2cccs2)C(=O)c2ccco2)cc1 | inconclusive: 1260 nM [activator, partial curve, poor fit] | – |
| Cc1nc2cc(NC(=O)CCS(=O)(=O)c3ccccc3)ccc2s1 | – | inactive: 14.1% [at 30.8 µM] |
| COc1cccc(NC(=O)/C(C#N)=C/c2ccc(-c3ccc(C)cc3)o2)c1 | inconclusive: 10000 nM [activator, partial curve] | – |
| Cc1ccc(NC(=O)c2ccc(S(=O)(=O)N3CCCCCC3)cc2)nc1 | inconclusive: 178 nM [activator, full curve, poor fit] | – |
| Cc1ccc(C(=O)Nc2ccccc2Oc2ccccc2)o1 | inconclusive: 141 nM [activator, full curve, poor fit] | – |
| O=C(Nc1cccc(Cl)c1)C1CCCN(C2=NS(=O)(=O)c3ccccc32)C1 (configuration not stated) | – | inconclusive: 34.2% [activator] |
| CN(C)C(=O)c1cccc(-c2cnc3c(NC=O)cc(-c4ccc(F)cc4)cn23)c1 | – | inconclusive: 43.1% [activator] |
| Cc1ccc(S(=O)(=O)Nc2cccc(C(=O)NCC(c3ccco3)N3CCCCC3)c2)cc1F (configuration not stated) | – | inconclusive: 40% [activator] |
| CCCn1c(CN2CCN(C(=O)c3ccco3)CC2)nc2c1c(=O)n(C)c(=O)n2C | – | inconclusive: 34.2% [activator] |
| O=C(O)c1cc(-c2ccc(-c3c(-c4ccc5c(c4)OCO5)noc3-c3ccsc3)cc2)nc2ccccc12 | inconclusive: 708 nM [activator, full curve, poor fit] | – |
| O=C(c1ccc2nc(N3CCOCC3)sc2c1)N1CCC(Cc2ccccc2)CC1 | – | inconclusive: 27.2% [activator] |

Given with tabs: 2 of the compounds above.
Structure (SMILES)	Potency	activation
Cc1ccccc1OCCn1cnc2c(N)ncnc21	–	inconclusive: 43.7% [activator]
Cn1cc(C(c2ccccc2)c2ccc(Cl)s2)c2ccccc21 (configuration not stated)	–	inconclusive: 62.1% [activator]
